Measured values published in PubChem BioAssay (NCATS).
The shares of active, inactive and inconclusive entries below differ from those in the screen. Where the call is inconclusive, the potency comes from a doubtful curve fit. The source made the active and inactive calls. Calls come from the whole dose curve; as a rule, active = well fitted cell-killing curve with a large enough effect; inconclusive = small, poorly fitted or top-dose-only effect, or effect the other way; inactive = no such curve, though single readings can be large or run the other way.

Experiment: Quantitative High-Throughput drug screen in 47 multiple myeloma cell lines against the NCATS MIPE library collection: VP6_DJ cell viability assay (AID 1919867); note: nearly all actives have a fitted effect of over 40% in size
Settings: ATP luminescence, 48 h; viability (% of DMSO): at 45.8 µM (top of the series)
From the text: PI: Beverly A. Mock Ph.D.
Laboratory of Cancer Biology and Genetics,
Center for Cancer Research, National Cancer Institute,
National Institute of Health, Bethesda, Maryland
Drug resistance and disease progression are common in multiple myeloma (MM) patients, underscoring the need for new therapeutic combinations. […] We hypothesized that effective combinations would reduce MYC expression and enhance p16 activity. […] These preclinical data identify potentially useful drug combinations for evaluation in drug-resistant MM and reveal potential mechanisms of combined drug sensitivity.
Described herein is the primary MIPE qHTS used to cherrypick compounds. Validated compounds were then further tested for potential synergistic activiy.
[1] Peat TJ, Gaikwad SM, Dubois W, Gyabaah-Kessie N, Zhang S, Gorjifard S, Phyo Z, Andres M, Hughitt VK, Simpson RM, Miller MA, Girvin AT, Taylor A, Williams D, D'Antonio N, Zhang Y, Rajagopalan A, Flietner E, Wilson K, Zhang X, Shinn P, Klumpp-Thomas C, McKnight C, Itkin Z, Chen L, Kazandijian D, Zhang J, Michalowski AM, Simmons JK, Keats J, Thomas CJ, Mock BA. Drug combinations identified by high-throughput screening promote cell cycle transition and upregulate Smad pathways in myeloma. Cancer Lett. 2023 Aug 1;568:216284. doi: 10.1016/j.canlet.2023.216284. Epub 2023 Jun 24. PMID: 37356470; PMCID: PMC10408729.
SEQUENCE No. (e.g., 1, 2, 3, etc.); […] (e.g., Cells, Incubation, Reagent, etc.); VALUE and DESCRIPTION.
1; Cells; 5 uL; white, solid bottom 1536-well Greiner assay plate.
2; Compounds; 23 nL; Kalypsis pin tool (Wako USA) equipped with a 1536-well pin head to transfer to the assay plates.
3; Incubation; 48 hours; 37C incubation.
4; Reagent;5uL; CellTiter Glo (Promega).
5; Detector; 425V; Luminescence; Viewlux PerkinElmer.
NOTES (numbers refer to Sequence numbers above)
1. The cell-based screening methods employed in this study were like those previously published. Briefly, the corresponding myeloma cell lines were screened in 1,536-well plates with 500 cells, 5-uL per well for inhibition of cell viability (assessed by measuring ATP levels with CellTiterGlo).
2. NCATS MIPE 4.0 library of approved and investigational drugs were added using the Kalypsis pin tool. Wells treated with DMSO only for 100% viability and media only for 0% viability were used as controls.
3. The assay plates were covered and incubated for 48 hours in a 37C, 5% CO2 incubator with controlled humidity.
4. After 48 hours, CellTilter-GloTM luminescent substrate mix (Promega) reagent was added to the assay plate and plates we incubated for 5 min at room temperature.
5. Signal was measured as median relative luminescence units on a ViewLux (PerkinElmer) multiplate reader.
[1] Heske CM, Davis MI, Baumgart JT, Wilson K, Gormally MV, Chen L, Zhang X, Ceribelli M, Duveau DY, Guha R, Ferrer M, Arnaldez FI, Ji J, Tran HL, Zhang Y, Mendoza A, Helman LJ, Thomas CJ. Matrix Screen Identifies Synergistic Combination of PARP Inhibitors and Nicotinamide Phosphoribosyltransferase (NAMPT) Inhibitors in Ewing Sarcoma. Clin Cancer Res. 2017 Dec 1;23(23):7301-7311. doi: 10.1158/1078-0432.CCR-17-1121. Epub 2017 Sep 12. PMID: 28899971; PMCID: PMC6636827.
Potency is the fitted concentration of half-maximal effect.

| Compound | viability (% of DMSO) | Potency |
| --- | --- | --- |
| COC(=O)C1=CCCN(C)C1 | inactive: 113% | – |
| Oc1ccc2c3c1O[C@H]1c4[nH]c5c(c4C[C@@]4(O)[C@@H](C2)N(CC2CC2)CC[C@]314)C[C@@]1(O)[C@H]2Cc3ccc(O)c4c3[C@@]1(CCN2CC1CC1)[C@H]5O4 | – | inconclusive: 16600 nM [cytotoxic, partial curve, poor fit] |
| CNCC(O)c1ccc(O)cc1 (stereo not given) | – | inconclusive: 3720 nM [cytotoxic, full curve] |
| CC=C(C)C(=O)N[C@@H](c1ccccc1)[C@@H](O)C(=O)O[C@H]1C[C@@]2(O)[C@@H](OC(=O)c3ccccc3)[C@@H]3[C@]4(OC(C)=O)CO[C@@H]4C[C@H](O)[C@@]3(C)C(=O)[C@H](OC(C)=O)C(=C1C)C2(C)C | inactive: 70.8% | – |
| CC1=C2C[C@@H]3[C@@H](CC=C4C[C@@H](O)CC[C@@]43C)[C@@H]2CC[C@]12O[C@H]1C[C@H](C)CN[C@H]1[C@H]2C | inconclusive: 128% [cytotoxic] | – |
| Cc1cc(SCc2sc(-c3ccc(C(F)(F)F)c(F)c3)nc2C)ccc1OCC(=O)O | – | inconclusive: 16600 nM [cytotoxic, partial curve, poor fit] |
| O=C(O)c1nn(Cc2ccc(Cl)cc2Cl)c2ccccc12 | – | inconclusive: 11.8 nM [rising, full curve, poor fit] |
| CC(=O)Nc1ccc(OC[C@](C)(O)C(=O)Nc2ccc([N+](=O)[O-])c(C(F)(F)F)c2)cc1 | – | inconclusive: 3320 nM [cytotoxic, partial curve, poor fit] |
| CC(C)N(CCNC(=O)CN1CCCC1=O)C(C)C | – | inconclusive: 9350 nM [cytotoxic, single point] |
| CC[C@@H](C(N)=O)N1CCCC1=O | – | inconclusive: 1 nM |
| COc1ccc(C(=O)c2c(C)n(CCN3CCOCC3)c3ccccc23)cc1 | inactive: 124% | – |
| CC=C(C)C(=O)O[C@H]1C(C)=C2[C@@H]3OC(=O)[C@@](C)(O)[C@@]3(O)[C@@H](OC(=O)CCC)C[C@](C)(OC(C)=O)[C@@H]2[C@@H]1OC(=O)CCCCCCC | – | active: 52.6 nM |
| CN1C(=O)COc2c(C(=O)NC3CN4CCC3CC4)cc(Cl)cc21 (stereo not given) | inactive: 117% | – |
| CC(C)[C@H]1C(=O)N[C@H](CO)Cc2c[nH]c3cccc(c23)N1C | inactive: 130% | – |
| c1ccc(CCCN2CCN(CCOC(c3ccccc3)c3ccccc3)CC2)cc1 | – | inconclusive: 29600 nM [cytotoxic, partial curve, poor fit] |
| COC[C@@H](NC(C)=O)C(=O)NCc1ccccc1 | inactive: 131% | – |
| Cc1nc(-c2ccc(-c3ccc(C(=O)N4CCc5cc6c(cc54)C4(CCN(C)CC4)CO6)cc3)c(C)c2)no1 | – | inconclusive: 2640 nM [cytotoxic, partial curve, poor fit] |
| O=C1C=CC[C@@H]2[C@H]3CCCN4CCC[C@@H](CN12)[C@@H]34 | – | inconclusive: 13.2 nM [rising, full curve] |
| O=C(Oc1ccc([N+](=O)[O-])cc1)N1CCN(Cc2cccc(Oc3ccccc3)c2)CC1 | – | inconclusive: 8330 nM [cytotoxic, partial curve, poor fit] |
| CC(C)N[C@@H]1CCn2c(=O)[nH]c3cccc(c32)[C@@H]1O | – | inconclusive: 1320 nM [cytotoxic, partial curve, poor fit] |

| Compound | viability (% of DMSO) | Potency |
| --- | --- | --- |
| C[C@]12CC[C@H]3[C@@H](CCC4=CC(=O)CC[C@@]43C)[C@H]1CC[C@H]2O | – | inconclusive: 37200 nM [cytotoxic, single point] |
| CC(C)[C@]12O[C@@H]1[C@@H]1O[C@]13[C@]1(O[C@H]1C[C@@H]1C4=C(CC[C@@]13C)C(=O)OC4)[C@H]2O | inactive: 4.09% | – |
| C[C@H]([C@H](O)CCC(C)(C)O)[C@H]1CC[C@@]2(O)C3=CC(=O)[C@@H]4C[C@@H](O)[C@@H](O)C[C@]4(C)[C@@H]3CC[C@]12C | – | inconclusive: 1.2 nM [rising, full curve, poor fit] |
| O=c1[nH]c2ccc(Cl)cc2c(N[C@@H]2CN3CCC2CC3)c1-c1nc2ccccc2[nH]1 | – | active: 132 nM |
| C[C@@H]1CC[C@H]2[C@@H](C)C(=O)O[C@@H]3O[C@@]4(C)CC[C@H]1[C@]32OO4 | – | inconclusive: 37.2 nM [cytotoxic, full curve, poor fit] |
| O=P1(N(CCCl)CCCl)NCCCO1 (stereo not given) | inactive: 114% | – |
| COc1ccc(C(CN(C)C)C2(O)CCCCC2)cc1 (stereo not given) | – | inconclusive: 1180 nM [cytotoxic, full curve, poor fit] |
| CCN1C[C@]2(OC(=O)c3ccccc3NC(C)=O)CC[C@H](OC)[C@@]34[C@H]5CC6[C@@H](OC)C[C@](O)(C(C[C@@H]23)[C@@H]14)[C@@]5(O)[C@@H]6OC | – | inconclusive: 8330 nM [cytotoxic, single point] |
| O=C(N[C@@H](COc1ccc2[nH]c(=O)[nH]c2c1)c1ccccc1)c1cccn(Cc2ccc(F)c(F)c2)c1=O | – | inconclusive: 2090 nM [cytotoxic, full curve] |
| C=C[C@@H]1CN2CCC1C[C@@H]2[C@@H](O)c1ccnc2ccccc12 (stereo not given in full) | – | inconclusive: 33200 nM [cytotoxic, single point] |
| C[C@]12CC[C@@H]3c4ccc(OC(=O)N(CCCl)CCCl)cc4CC[C@H]3[C@@H]1CC[C@@H]2OP(=O)(O)O | – | inconclusive: 1.7 nM [rising, full curve, poor fit] |
| CCOP(=O)(OCC)C(C)NC(=O)N(CCCl)N=O (stereo not given) | – | inconclusive: 4.7 nM [rising, full curve, poor fit] |
| COC1(CS(=O)c2ccccc2)CCN(CCc2c[nH]c3ccc(F)cc23)CC1 (stereo not given) | – | inconclusive: 2960 nM [cytotoxic, full curve, poor fit] |
| Cc1ccccc1-n1c(Cn2ncc3c(N)ncnc32)nc2cccc(C)c2c1=O | – | active: 166 nM |
| CN(C)[C@@H]1C(=O)C(C(N)=O)=C(O)[C@@]2(O)C(=O)C3=C(O)c4c(O)cccc4[C@@](C)(O)[C@H]3C[C@@H]12 | – | inconclusive: 20900 nM [cytotoxic, single point] |
| C#CCN(C)[C@H](C)Cc1ccccc1 | – | inconclusive: 23.5 nM [rising, full curve, poor fit] |
| COc1ccc2c(c[n+](C)c3c4cc5c(cc4ccc23)OCO5)c1OC | – | active: 2960 nM |
| COc1ccc(C(=O)N2CCCC2=O)cc1 | – | inconclusive: 13200 nM [cytotoxic, partial curve, poor fit] |
| Cc1c(N)nc([C@H](CC(N)=O)NC[C@@H](N)C(N)=O)nc1C(=O)N[C@H](C(=O)N[C@@H](C)[C@H](O)[C@@H](C)C(=O)N[C@@H](C(=O)NCCc1nc(-c2nc(C(=O)NCCC[S+](C)C)cs2)cs1)[C@@H](C)O)C(O[C@H]1O[C@H](CO)[C@H](O)[C@@H](O)[C@@H]1O[C@H]1O[C@H](CO)[C@@H](O)[C@H](OC(N)=O)[C@H]1O)c1cnc[nH]1 (stereo not given in full) | – | active: 16600 nM |
| O=C(O)CNC(=O)c1c(O)c2ccccc2n(Cc2ccccc2)c1=O | – | inconclusive: 3.3 nM [rising, full curve] |

Among those listed so far, these contain a Cl atom:

| Compound | viability (% of DMSO) | Potency |
| --- | --- | --- |
| O=C(O)c1nn(Cc2ccc(Cl)cc2Cl)c2ccccc12 | – | inconclusive: 11.8 nM [rising, full curve, poor fit] |
| CN1C(=O)COc2c(C(=O)NC3CN4CCC3CC4)cc(Cl)cc21 (stereo not given) | inactive: 117% | – |
| O=c1[nH]c2ccc(Cl)cc2c(N[C@@H]2CN3CCC2CC3)c1-c1nc2ccccc2[nH]1 | – | active: 132 nM |
| O=P1(N(CCCl)CCCl)NCCCO1 (stereo not given) | inactive: 114% | – |
| C[C@]12CC[C@@H]3c4ccc(OC(=O)N(CCCl)CCCl)cc4CC[C@H]3[C@@H]1CC[C@@H]2OP(=O)(O)O | – | inconclusive: 1.7 nM [rising, full curve, poor fit] |
| CCOP(=O)(OCC)C(C)NC(=O)N(CCCl)N=O (stereo not given) | – | inconclusive: 4.7 nM [rising, full curve, poor fit] |
